The text below walks through data of patent US20180037903A1, “METHODS AND MEANS FOR INCREASING STRESS TOLERANCE AND BIOMASS IN PLANTS” (THE UNIVERSITY COURT OF THE UNIVERSITY OF GLASGOW, priority 2013, published 2018).

These are yes or no findings as the source states them, for the method shown. For some assays here: Where a sequence is shown, tags or fusion partners need not be part of it.

The target in test [1] is GST alone. As to the kind of experiment: GST pull-down from nuclei-enriched A. thaliana protein samples, anti-HDC1 Western blot. On the technique in general: Immunoblotting shows a protein as a band on a membrane.
The target in test [2] is GST alone. As to the kind of experiment: in-vitro GST pull-down of recombinant HDC1-His, anti-His Western blot.

B1: native HDC1 from nuclei-enriched protein samples of A. thaliana wildtype plants (protein)
chain: MSGVPKRSHEEGVTHPSSSSSVAKYPHEDSGSYPKSPHQPVTPPPAQVHHNHQQPHQHPQSQSQSQPQPHLQALPHPHSHSHSHSPLAAAASASAPYEVESRTVVKVARSEPRDGERRSPLPLVYRSPSLPTTVSSSDPHLTHAPVPMEPRDGAKDGREIRVESRENRSDGREIYGETKREIQGPKGDRDVKFERSVDDFSGKGNTGSYTRNDGREMYGETKREIQGPKSDRDAKFERPGDDFSGKSNAGSYTRDTKFDRENQNYNEQKGEIKMEKEGHAHLAWKEQKDYHRGKRVAEGSTANVDPWVVSRGNPQGPTEVGPKDLSAPVEGSHLEGRETVGENKVDAKNEDRFKEKDKKRKELKHREWGDRDKDRNDRRVSVLVGSVMSEPKEIGREERESDRWERERMEQKDRERNKEKDKDHIKREPRTGAEKEISQNEKELGEASAKPSEQEYVAPEQKKQNEPDNCEKDERETKEKRRERDGDSEAERAEKRSRISEKESEDGCLEGEGATEREKDAFNYGVQQRKRALRPRGSPQTTNRDNVRSRSQDNEGVQGKSEVSIVVYKVGECMQELIKLWKEYDLSHPDKSGDFANNGPTLEVRIPAEHVTATNRQVRGGQLWGTDIYTDDSDLVAVLMHTGYCRPTASPPPPTMQELRTTIRVLPSQDYYTSKLRNNVRSRAWGAGIGCSYRVERCYILKKGGGTIELEPSLTHSSTVEPTLAPMAVERSMTTRAAASNALRQQRFVREVTIQYNLCNEPWIKYSISIVADKGLKKPLFTSARLKKGEVLYLETHSCRYELCFAGEKTIKAIQASQQQSSHEAMETDNNNNKSQNHLTNGDKTDSDNSLIDVFRWSRCKKPLPQKLMRSIGFPLPADHIEVLEENLDWEDVQWSQTGVWIAGKEYTLARVHFLSPN
Take B1: the binding entry with GST alone [1] is on record as “no binding”.

B2: recombinant HDC1-His (protein, not shown: small tags and cut ends)
chain: B1 chain
Regarding B2, in the test with GST alone [2], the binding entry is recorded as “no binding”.
